# Data as given in PubChem BioAssay AID652272 (Drosophila RNAi Screening Center, 2013).
# Screen: 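Genes whose knock-down decreases or increases Hedgehog reporter output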 (primary screen)
# System: Drosophila clone 8 (Cl8) cells
# Reagent: long dsRNA against Drosophila genes
# Detection: 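Plate reader light from a firefly reporter under a ptc promoter fragment that responds to Hedgehog, with Renilla light as transfection reference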
# Scale: firefly Hh reporter signal: higher = more ptc reporter light; Renilla reference signal: higher = more Renilla control light
# Rule for the call: 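Hit when the z-score averaged over two replicates is under -2 or over +3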
# Calls: active = hit: reporter lowered or raised; inactive = not a hit
# The deposit covers about 21,000 reagents; shown is an unselected part of those that have a named target and a result. Over the whole deposit, 503 (2.4%) got an active call. 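Raw plate light values, not normalised; calls rest on replicate z-scores that were not deposited; hits include reporter decreases as well as increases.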 A plus sign joins genes that one reagent is predicted to hit. No sequences are given here. The record does not give: the amount of reagent, the time to read-out.
target,amplicon,"firefly Hh reporter signal, replicate 1","firefly Hh reporter signal, replicate 2","firefly Hh reporter signal, replicate 3","Renilla reference signal, replicate 1","Renilla reference signal, replicate 2",Call
Lint-O (GeneID 31254),DRSC18468,61332,1.53e5,,1853,6914,inactive
CG13066 (GeneID 50270),DRSC09949,1.74e5,,,5868,5018,inactive
CG3746 (GeneID 37593),DRSC04412,95173,52617,,2608,5319,inactive
CG12935 + Nop10,DRSC07025,1.16e5,73259,,3335,6636,inactive
CG18870 (GeneID 59218),DRSC04313,79216,60315,,2288,5020,inactive
dpr17 (GeneID 41470),DRSC12885,50176,2.08e5,,10388,4561,inactive
dpr17 (GeneID 41470),DRSC14957,25571,59723,,1291,2140,inactive
dpr17 (GeneID 41470),DRSC14958,51948,1.49e5,,1485,4155,inactive
CG3505 (GeneID 41777),DRSC15489,98010,78000,,4408,3033,inactive
CG13408 (GeneID 42597),DRSC13534,51052,1.77e5,,10938,4150,inactive
CG13408 (GeneID 42597),DRSC14584,7.79e5,1.72e5,,40715,13346,inactive
Grip163 (GeneID 39365),DRSC10538,43810,33993,40838,3515,3397,inactive
btd (GeneID 31912),DRSC18747,55636,1.50e5,,1651,5122,inactive
nonC (GeneID 31625),DRSC18366,1.10e5,82528,,1362,803,active
nonC (GeneID 31625),DRSC18367,1.68e5,6.23e5,,3015,8816,active
psh (GeneID 32832),DRSC19990,87557,2.62e5,,2160,10390,inactive
lectin-21Ca (GeneID 53552),DRSC00541,83477,61273,,2217,1636,inactive
side-IV + asRNA:CR17025,DRSC14833,1.00e5,82676,,4000,2235,inactive
side-IV + asRNA:CR17025,DRSC15168,1.13e5,79190,,3399,2146,inactive
Dus4 (GeneID 35179),DRSC02066,58598,68316,,2402,2754,inactive
Chd64 (GeneID 38490),DRSC08649,1.16e5,66739,,4949,2699,inactive
egl (GeneID 37757),DRSC04682,1.08e5,1.02e5,,3205,9466,inactive
Targ1 (GeneID 40340),DRSC11616,70848,1.21e5,,1680,3532,inactive
qkr58E-3 (GeneID 37559),DRSC04711,97637,85021,,3796,2979,inactive
mmm (GeneID 38851),DRSC10208,52695,69825,,6295,4940,inactive
CG16786 (GeneID 37856),DRSC04281,86251,68416,,1949,6748,inactive
Bap60 (GeneID 32268),DRSC19337,71496,44746,,2347,1628,inactive
tmod (GeneID 43633),DRSC13993,5.27e5,2.25e5,,28790,4250,inactive
tmod (GeneID 43633),DRSC14314,73232,91782,,2471,3338,inactive
tmod (GeneID 43633),DRSC15076,97376,93267,,3442,3252,inactive
tmod (GeneID 43633),DRSC17062,52976,82641,,790,2512,inactive
CG33332 (GeneID 2768669),DRSC15504,81089,93777,,3012,2537,inactive
Fis1 (GeneID 49892),DRSC07772,77100,36952,,3000,3234,inactive
CG3961 (GeneID 40056),DRSC10390,90263,59917,,3409,2361,inactive
CG3961 (GeneID 40056),DRSC10391,1.66e5,,,106,4038,inactive
CG11275 (GeneID 37534),DRSC04095,1.00e5,81916,,1714,6966,inactive
CG1544 (GeneID 43689),DRSC15036,78008,94518,,1376,3142,inactive
CG1603 (GeneID 35683),DRSC06602,94336,50051,,4176,1248,inactive
Xrcc2 (GeneID 32837),DRSC19984,99344,2.60e5,,3928,11429,inactive

Entries above whose target name starts with B or b (2):
target,amplicon,"firefly Hh reporter signal, replicate 1","firefly Hh reporter signal, replicate 2","firefly Hh reporter signal, replicate 3","Renilla reference signal, replicate 1","Renilla reference signal, replicate 2",Call
btd (GeneID 31912),DRSC18747,55636,1.50e5,,1651,5122,inactive
Bap60 (GeneID 32268),DRSC19337,71496,44746,,2347,1628,inactive
